Publication doi:10.1101/2025.06.18.657655, “Fibulin-4 is highly expressed in metastatic breast cancer and can serve as a target of peptide-based imaging probes and experimental therapeutics” (bioRxiv, 2025)
Results are given in words; binding and its absence hold for the method and conditions named. For some of these results: In cells and extracts the contact can be indirect. Some entries that bind do so weakly or less than the wild type. One block for each molecule: values may come before it.

Chains of the proteins cited; added tags and fusions are not shown. Residues count along the entry.
UniProt O95967, residues 24-443: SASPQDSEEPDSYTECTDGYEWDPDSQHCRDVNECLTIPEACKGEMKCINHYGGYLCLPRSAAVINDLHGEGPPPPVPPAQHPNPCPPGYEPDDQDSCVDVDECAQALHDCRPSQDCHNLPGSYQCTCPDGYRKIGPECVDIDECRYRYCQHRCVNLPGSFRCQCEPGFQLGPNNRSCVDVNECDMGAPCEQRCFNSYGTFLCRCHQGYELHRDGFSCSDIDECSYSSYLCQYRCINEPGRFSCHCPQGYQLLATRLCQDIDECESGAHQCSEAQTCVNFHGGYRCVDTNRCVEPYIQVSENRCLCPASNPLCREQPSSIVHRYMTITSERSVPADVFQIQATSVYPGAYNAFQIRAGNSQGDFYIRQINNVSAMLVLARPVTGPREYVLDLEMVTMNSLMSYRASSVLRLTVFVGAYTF
UniProt Q9WVJ9, residues 28-443: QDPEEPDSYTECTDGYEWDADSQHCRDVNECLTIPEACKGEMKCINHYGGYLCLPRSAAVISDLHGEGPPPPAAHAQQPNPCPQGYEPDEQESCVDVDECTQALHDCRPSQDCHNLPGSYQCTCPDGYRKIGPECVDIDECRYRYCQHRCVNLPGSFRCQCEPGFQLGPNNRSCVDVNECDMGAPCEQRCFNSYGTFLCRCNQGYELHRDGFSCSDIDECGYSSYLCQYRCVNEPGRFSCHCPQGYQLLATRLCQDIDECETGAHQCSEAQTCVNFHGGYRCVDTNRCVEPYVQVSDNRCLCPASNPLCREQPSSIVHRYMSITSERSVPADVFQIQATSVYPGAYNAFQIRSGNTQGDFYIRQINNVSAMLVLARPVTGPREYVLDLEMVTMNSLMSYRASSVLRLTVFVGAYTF

Tests used:
[1] = target: T1, biotinylated BLMP6, cyclic peptide …; test: pull-down; biotinylated BLMP6 immobilized on streptavidin-coated beads, incubated with proteins extracted from 4T1 cells; washing, elution, immunoblot with anti-FBLN4 antibodies; only the target purified
T1 sequence (peptide, biotin on the N-terminus; cysteine-cyclized): CRAGVGRGC

[2] = target: T1, biotinylated BLMP6, cyclic peptide …; test: BLI; Octet RED96; peptides loaded on streptavidin biosensors at 20 ug/ml in 1x kinetic buffer for 5 min; Fibulin-4 protein 0 to 400 nM, 300 sec association, 300 sec dissociation; 1:1 binding model; both purified
[3] = target: T2, cyclic peptide … (control); test: as above
T2 sequence (peptide, cyclic): CKGGRAKDC

[4] = target: FBLN4 ectopically expressed in HEK293 cells (UniProt O95967); test: binding of fluorophore-labelled peptide to cells; AZDye555-BLMP6 on HEK293 cells ectopically expressing FBLN4, against non-transfected control cells; only the binder purified

binding [1]: binds
Molecule: FBLN4 of mouse 4T1 cancer cells (from UniProt Q9WVJ9 28-443)

binding [2]: binds | binding [3]: no binding (tested: 0 to 400 nM)
Molecule: Fibulin-4 protein (Abcam, 182808) (from UniProt O95967 24-443)

binding [4]: binds
Molecule: CRAGVGRGC (AZDye555 on the N-terminus; cysteine-cyclized) [AZDye555-BLMP6]
